{"sequences": {"note": "By UniProt entry, the sequences of proteins in these tests, tags left out.", "UniProt P09471, whole entry, looked up": "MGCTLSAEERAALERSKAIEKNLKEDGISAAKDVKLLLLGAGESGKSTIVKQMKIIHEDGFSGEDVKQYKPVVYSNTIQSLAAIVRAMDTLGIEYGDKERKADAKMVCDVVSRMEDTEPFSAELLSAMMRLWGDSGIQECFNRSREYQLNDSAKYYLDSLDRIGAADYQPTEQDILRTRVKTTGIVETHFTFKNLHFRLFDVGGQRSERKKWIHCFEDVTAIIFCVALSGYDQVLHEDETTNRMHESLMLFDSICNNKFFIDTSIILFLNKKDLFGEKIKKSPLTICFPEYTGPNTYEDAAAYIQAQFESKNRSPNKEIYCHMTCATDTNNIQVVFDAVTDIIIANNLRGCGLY"}, "source": "PubChem BioAssay AID1439", "about": "(NMMLSC, 2008)", "note": "Hit rate of the full screen: of about 220,000 compounds, about 770 (0.35%) were called active. Inconclusive means that the source gave no clear call. Such entries were picked first, then a sample of the others. Rule as the data show it: active = binding response below about 49% or above about 150%; inconclusive = no clear call, values can overlap the other calls; inactive = in between."}
{"biological_target": "Guanine nucleotide-binding protein G(o) subunit alpha (Homo sapiens) (UniProt P09471)", "experiment": "RGS7-Galphao binding modulators, primary screen, biochemical, multiplexed bead flow cytometry (AID 1439);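 also: fluorescent Galphao held in activated GDP-AlF4 state binding bead-coupled RGS7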", "conditions": "at 10 µM, actives lie on both sides"}
{"smiles": "Cc1c(C(=O)NCC2CCCO2)cccc1[N+](=O)[O-]", "note": "(stereo not given)", "binding response (% of control)": "inactive: 99.8%"}
{"smiles": "NC(=O)c1c(/N=C/c2cccnc2)sc2c1CCCC2", "binding response (% of control)": "inconclusive: -235%"}
{"smiles": "CSc1nnc(C)c(=O)n1COC(=O)c1cc(Cl)ccc1[N+](=O)[O-]", "binding response (% of control)": "inconclusive: 120%"}
{"smiles": "CC1C=CCC2C(=O)N(c3ccc(OC(=O)c4ccco4)cc3)C(=O)C12", "note": "(stereo not given)", "binding response (% of control)": "inconclusive: 117%"}
{"smiles": "Clc1ccc(-c2c[n+](Cc3ccc(Cl)cc3Cl)c3n2CCCCC3)cc1", "binding response (% of control)": "inconclusive: 91.1%"}
{"smiles": "COCCCNc1oc(-c2ccccc2Cl)nc1C#N", "binding response (% of control)": "inconclusive: 114%"}
{"smiles": "CCOC(=O)c1c(NC(=O)COC(=O)C2CC2C)sc(C)c1C", "note": "(stereo not given)", "binding response (% of control)": "inconclusive: 109%"}
{"smiles": "CN1CCN(C(=O)c2ccc(Cl)c(S(=O)(=O)N3CCCCCC3)c2)CC1", "binding response (% of control)": "inconclusive: 100%"}
{"smiles": "OCCCNc1nccc(-c2cc(Nc3cccc(Cl)c3)ncn2)n1", "binding response (% of control)": "inconclusive: 112%"}
{"smiles": "CN(Cc1nc2c(s1)CCCC2)C(=O)CCc1nnc(-c2ccc3c(c2)OCO3)o1", "binding response (% of control)": "inconclusive: 129%"}
{"smiles": "O=C(CCCn1c(=O)c2ccccc2n(Cc2ccccc2)c1=O)NCc1ccco1", "binding response (% of control)": "inactive: 122%"}
{"smiles": "O=C(COC(=O)c1ccc(S(=O)(=O)Nc2ccccc2)cc1)NCCC1=CCCCC1", "binding response (% of control)": "inactive: 102%"}
{"smiles": "Cc1ccc(C(=O)NC(O)C(Cl)Cl)cc1", "note": "(stereo not given)", "binding response (% of control)": "inactive: 113%"}
{"smiles": "CCN(CC)S(=O)(=O)c1ccc(N2CCCC2)c(NC(=O)C2CCCCC2)c1", "binding response (% of control)": "inconclusive: 127%"}
{"smiles": "N#CC(C(=O)c1ccccc1)=C1SCCS1", "binding response (% of control)": "inconclusive: 81.1%"}
{"smiles": "COC(=O)c1ccc(S(=O)(=O)NCc2ccc(S(N)(=O)=O)cc2)n1C", "binding response (% of control)": "inconclusive: 89.1%"}
{"smiles": "Cn1c(NC2CCCCC2)c(N=O)c(=O)n(C)c1=O", "binding response (% of control)": "inactive: 101%"}
{"smiles": "O=C(C(Cc1ccc(Cl)cc1)NS(=O)(=O)c1ccccc1)N1CC[C@@]2(O)CCCC[C@H]2C1", "note": "(stereo not given in full)", "binding response (% of control)": "inactive: 97.5%"}
{"smiles": "Cc1c(-n2c(-c3ccccc3Cl)n[nH]c2=S)c(=O)n(-c2ccccc2)n1C", "binding response (% of control)": "inconclusive: 96.1%"}
{"smiles": "O=C(O)c1ccc(NC(=O)C2(c3ccccc3)CCCC2)cc1", "binding response (% of control)": "inconclusive: -39%"}
{"smiles": "O=C1CCC(C(=O)Nc2cccc(Oc3ccccc3)c2)=NN1", "binding response (% of control)": "inactive: 106%"}
{"smiles": "O=C(Sc1ccc(Cl)cc1)c1cccc(Cn2cc(C(F)(F)F)ccc2=O)c1", "binding response (% of control)": "inconclusive: 86%"}
{"smiles": "CCOC(=O)c1c(NC(=O)Cn2nc(C(=O)O)c3ccccc3c2=O)sc(C)c1C", "binding response (% of control)": "inconclusive: -133%"}
{"smiles": "C=CCNC(=S)Nc1ccc(Cl)c(S(=O)(=O)N2CCOCC2)c1", "binding response (% of control)": "inconclusive: 92.2%"}
{"smiles": "CCNc1nc(Cl)nc(N(NC(C)=O)C(C)C)n1", "binding response (% of control)": "inconclusive: 121%"}
